The source of these data is article PMC5345131.

Chains of the proteins cited; added tags and fusions are not shown. Residues count along the entry.
UniProt P34998, residues 24-415: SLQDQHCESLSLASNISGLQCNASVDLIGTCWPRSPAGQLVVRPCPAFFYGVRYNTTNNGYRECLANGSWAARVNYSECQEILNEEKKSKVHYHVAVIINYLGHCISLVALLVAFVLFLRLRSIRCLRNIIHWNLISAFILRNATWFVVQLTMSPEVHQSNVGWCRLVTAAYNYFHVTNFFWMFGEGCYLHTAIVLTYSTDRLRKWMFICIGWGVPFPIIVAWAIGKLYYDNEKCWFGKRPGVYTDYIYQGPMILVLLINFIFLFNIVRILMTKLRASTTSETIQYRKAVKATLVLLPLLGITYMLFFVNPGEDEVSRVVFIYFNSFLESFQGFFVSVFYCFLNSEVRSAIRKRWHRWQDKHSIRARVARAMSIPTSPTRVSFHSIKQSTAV
UniProt Q96QZ7: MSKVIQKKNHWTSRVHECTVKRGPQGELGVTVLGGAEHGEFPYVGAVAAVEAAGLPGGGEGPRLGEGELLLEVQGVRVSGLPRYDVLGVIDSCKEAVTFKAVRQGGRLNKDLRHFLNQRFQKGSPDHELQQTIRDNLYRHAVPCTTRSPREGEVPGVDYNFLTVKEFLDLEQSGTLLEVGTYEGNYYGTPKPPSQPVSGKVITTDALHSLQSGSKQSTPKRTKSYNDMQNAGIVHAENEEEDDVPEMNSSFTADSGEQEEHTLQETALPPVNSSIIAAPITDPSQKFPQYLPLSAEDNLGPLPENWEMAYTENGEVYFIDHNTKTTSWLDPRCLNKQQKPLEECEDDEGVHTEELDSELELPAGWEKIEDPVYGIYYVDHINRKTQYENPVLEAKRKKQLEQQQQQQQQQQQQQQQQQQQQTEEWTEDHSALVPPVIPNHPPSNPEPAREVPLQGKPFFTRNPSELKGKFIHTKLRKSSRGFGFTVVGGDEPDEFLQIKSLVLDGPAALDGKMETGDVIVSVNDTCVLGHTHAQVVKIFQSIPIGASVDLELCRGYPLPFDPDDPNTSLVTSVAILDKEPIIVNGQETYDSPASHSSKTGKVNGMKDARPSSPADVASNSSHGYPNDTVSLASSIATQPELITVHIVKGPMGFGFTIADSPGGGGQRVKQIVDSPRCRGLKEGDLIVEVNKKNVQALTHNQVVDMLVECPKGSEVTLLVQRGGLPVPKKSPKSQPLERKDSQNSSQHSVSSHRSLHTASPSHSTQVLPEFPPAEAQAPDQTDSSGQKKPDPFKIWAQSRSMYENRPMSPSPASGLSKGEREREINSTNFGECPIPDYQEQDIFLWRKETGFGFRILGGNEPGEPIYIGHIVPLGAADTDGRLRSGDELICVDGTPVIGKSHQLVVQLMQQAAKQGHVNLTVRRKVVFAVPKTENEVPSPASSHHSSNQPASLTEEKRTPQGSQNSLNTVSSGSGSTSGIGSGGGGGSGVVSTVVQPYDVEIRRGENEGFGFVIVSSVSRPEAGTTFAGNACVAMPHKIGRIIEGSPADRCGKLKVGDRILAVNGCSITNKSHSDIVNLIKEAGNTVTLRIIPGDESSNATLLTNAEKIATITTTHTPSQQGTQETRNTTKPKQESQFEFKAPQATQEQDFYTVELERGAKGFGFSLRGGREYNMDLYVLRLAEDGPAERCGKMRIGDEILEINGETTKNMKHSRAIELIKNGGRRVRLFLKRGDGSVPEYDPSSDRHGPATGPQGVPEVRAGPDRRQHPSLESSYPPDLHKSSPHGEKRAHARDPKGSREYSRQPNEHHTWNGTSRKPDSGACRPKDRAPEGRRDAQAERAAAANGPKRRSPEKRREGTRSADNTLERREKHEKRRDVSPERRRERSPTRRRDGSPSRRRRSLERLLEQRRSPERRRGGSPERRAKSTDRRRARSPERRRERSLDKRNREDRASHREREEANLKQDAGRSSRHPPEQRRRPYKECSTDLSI
UniProt P32121: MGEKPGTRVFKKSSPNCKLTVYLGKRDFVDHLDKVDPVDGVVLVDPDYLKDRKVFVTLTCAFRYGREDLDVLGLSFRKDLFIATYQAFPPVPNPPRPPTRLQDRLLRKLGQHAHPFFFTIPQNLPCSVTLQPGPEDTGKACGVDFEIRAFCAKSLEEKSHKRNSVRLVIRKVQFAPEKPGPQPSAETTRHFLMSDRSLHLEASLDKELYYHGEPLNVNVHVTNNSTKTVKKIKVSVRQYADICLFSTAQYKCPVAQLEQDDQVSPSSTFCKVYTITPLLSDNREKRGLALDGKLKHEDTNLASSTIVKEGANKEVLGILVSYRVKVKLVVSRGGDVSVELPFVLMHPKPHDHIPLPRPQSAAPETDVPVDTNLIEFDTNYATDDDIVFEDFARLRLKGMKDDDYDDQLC

Test [1] addresses HA-tagged CRFR1 (corticotropin-releasing factor receptor 1), wild type (UniProt P34998). Kind of test: co-IP; HEK293 cells co-transfected with HA-CRFR1 (WT or ΔTAV) and the MAGI construct; with or without 100 nM CRF for 30 min; lysis in 50 mM Tris pH 8.0, 150 mM NaCl, 0.1% Triton X-100; 300 μg protein with mouse anti-HA and protein G-Sepharose overnight at 4°C; blots with anti-V5 (MAGI-1) or anti-MAGI-3.

A further test deals with YFP-tagged CRFR1 (UniProt P34998). Nature of the test: FRET or BRET; Living HEK293 cells, 72 h after transfection; β-arrestin-Rluc as donor, CRFR1-YFP as acceptor; 5 μM coelenterazine; increasing concentrations of CRF, or 500 nM CRF over time; with MAGI-1, MAGI-2 or MAGI-3 overexpressed or knocked down by siRNA. Background: In BRET a luciferase serves as donor, and the signal depends on an acceptor being close.

These are yes or no findings as the source states them, for the method shown. In cells and extracts the contact can be indirect. Some results given as binding are weak or reduced against the parent protein; the word gives no strength. For part of these data: Where a sequence is shown, tags or fusion partners need not be part of it.

With “His-MAGI-1-V5 (membrane-associated guanylate kinase with inverted orientation 1) (from UniProt Q96QZ7 1-1491)”, the binding result in test [1] is reported as “binds”.
On to “rLuc-tagged β-arrestin2 (from UniProt P32121 1-409)”, for which the binding result with YFP-tagged CRFR1 was “binds”.

B1: His-MAGI-3 (membrane-associated guanylate kinase with inverted orientation 3) (protein, UniProt Q5TCQ9 1-1481)
chain: MSKTLKKKKHWLSKVQECAVSWAGPPGDFGAEIRGGAERGEFPYLGRLREEPGGGTCCVVSGKAPSPGDVLLEVNGTPVSGLTNRDTLAVIRHFREPIRLKTVKPGKVINKDLRHYLSLQFQKGSIDHKLQQVIRDNLYLRTIPCTTRAPRDGEVPGVDYNFISVEQFKALEESGALLESGTYDGNFYGTPKPPAEPSPFQPDPVDQVLFDNEFDAESQRKRTTSVSKMERMDSSLPEEEEDEDKEAINGSGNAENRERHSESSDWMKTVPSYNQTNSSMDFRNYMMRDETLEPLPKNWEMAYTDTGMIYFIDHNTKTTTWLDPRLCKKAKAPEDCEDGELPYGWEKIEDPQYGTYYVDHLNQKTQFENPVEEAKRKKQLGQVEIGSSKPDMEKSHFTRDPSQLKGVLVRASLKKSTMGFGFTIIGGDRPDEFLQVKNVLKDGPAAQDGKIAPGDVIVDINGNCVLGHTHADVVQMFQLVPVNQYVNLTLCRGYPLPDDSEDPVVDIVAATPVINGQSLTKGETCMNPQDFKPGAMVLEQNGKSGHTLTGDGLNGPSDASEQRVSMASSGSSQPELVTIPLIKGPKGFGFAIADSPTGQKVKMILDSQWCQGLQKGDIIKEIYHQNVQNLTHLQVVEVLKQFPVGADVPLLILRGGPPSPTKTAKMKTDKKENAGSLEAINEPIPQPMPFPPSIIRSGSPKLDPSEVYLKSKTLYEDKPPNTKDLDVFLRKQESGFGFRVLGGDGPDQSIYIGAIIPLGAAEKDGRLRAADELMCIDGIPVKGKSHKQVLDLMTTAARNGHVLLTVRRKIFYGEKQPEDDSSQAFISTQNGSPRLNRAEVPARPAPQEPYDVVLQRKENEGFGFVILTSKNKPPPGVIPHKIGRVIEGSPADRCGKLKVGDHISAVNGQSIVELSHDNIVQLIKDAGVTVTLTVIAEEEHHGPPSGTNSARQSPALQHRPMGQSQANHIPGDRSALEGEIGKDVSTSYRHSWSDHKHLAQPDTAVISVVGSRHNQNLGCYPVELERGPRGFGFSLRGGKEYNMGLFILRLAEDGPAIKDGRIHVGDQIVEINGEPTQGITHTRAIELIQAGGNKVLLLLRPGTGLIPDHGDWDINNPSSSNVIYDEQSPLPPSSHFASIFEESHVPVIEESLRVQICEKAEELKDIVPEKKSTLNENQPEIKHQSLLQKNVSKRDPPSSHGHSNKKNLLKVENGVTRRGRSVSPKKPASQHSEEHLDKIPSPLKNNPKRRPRDQSLSPSKGENKSCQVSTRAGSGQDQCRKSRGRSASPKKQQKIEGSKAPSNAEAKLLEGKSRRIAGYTGSNAEQIPDGKEKSDVIRKDAKQNQLEKSRTRSPEKKIKRMVEKSLPSKMTNKTTSKEVSENEKGKKVTTGETSSSNDKIGENVQLSEKRLKQEPEEKVVSNKTEDHKGKELEAADKNKETGRFKPESSSPVKKTLITPGPWKVPSGNKVTGTIGMAEKRQ
Consider B1, for which the binding result in test [1] is recorded as “binds”.
